Results on one molecule are retold here after publication doi:10.1101/2020.02.20.958942.

For this test, the target named is T1, Caspase 8 (mouse (endogenous in 3T3 fibroblasts)) (UniProt O89110).
T1 sequence: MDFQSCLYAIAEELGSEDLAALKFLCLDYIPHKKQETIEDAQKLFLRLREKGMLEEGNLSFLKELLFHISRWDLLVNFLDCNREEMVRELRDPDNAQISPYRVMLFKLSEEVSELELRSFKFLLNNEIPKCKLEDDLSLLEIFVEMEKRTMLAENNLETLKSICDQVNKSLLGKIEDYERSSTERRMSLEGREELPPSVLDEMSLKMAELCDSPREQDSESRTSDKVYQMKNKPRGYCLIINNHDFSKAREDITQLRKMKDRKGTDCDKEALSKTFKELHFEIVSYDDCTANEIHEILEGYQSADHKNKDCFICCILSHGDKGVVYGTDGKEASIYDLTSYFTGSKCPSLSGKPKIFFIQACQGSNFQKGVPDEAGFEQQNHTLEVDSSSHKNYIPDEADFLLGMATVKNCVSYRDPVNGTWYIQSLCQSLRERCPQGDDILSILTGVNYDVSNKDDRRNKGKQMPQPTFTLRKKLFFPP
The experiment in a line: proximity ligation.

These are yes or no findings as the source states them, for the method shown. Binding seen in cells or lysates may run through a third protein. Some results given as binding are weak or reduced against the parent protein; the word gives no strength.

B1: Traf2 (protein, UniProt P39429 1-501)
chain: MAAASVTSPGSLELLQPGFSKTLLGTRLEAKYLCSACKNILRRPFQAQCGHRYCSFCLTSILSSGPQNCAACVYEGLYEEGISILESSSAFPDNAARREVESLPAVCPNDGCTWKGTLKEYESCHEGLCPFLLTECPACKGLVRLSEKEHHTEQECPKRSLSCQHCRAPCSHVDLEVHYEVCPKFPLTCDGCGKKKIPRETFQDHVRACSKCRVLCRFHTVGCSEMVETENLQDHELQRLREHLALLLSSFLEAQASPGTLNQVGPELLQRCQILEQKIATFENIVCVLNREVERVAVTAEACSRQHRLDQDKIEALSNKVQQLERSIGLKDLAMADLEQKVSELEVSTYDGVFIWKISDFTRKRQEAVAGRTPAIFSPAFYTSRYGYKMCLRVYLNGDGTGRGTHLSLFFVVMKGPNDALLQWPFNQKVTLMLLDHNNREHVIDAFRPDVTSSSFQRPVSDMNIASGCPLFCPVSKMEAKNSYVRDDAIFIKAIVDLTGL
On to B1, for which the binding result was “binds”.
